This passage reports log2 fold change results from the supplement of paper PMC10849652.

Protein sequences, listed by entry. Tags and fused reporters are not part of them. Lines headed by an entry give the natural chain unless they say otherwise; changes in a name come on top.
UniProt O00429, whole entry, looked up: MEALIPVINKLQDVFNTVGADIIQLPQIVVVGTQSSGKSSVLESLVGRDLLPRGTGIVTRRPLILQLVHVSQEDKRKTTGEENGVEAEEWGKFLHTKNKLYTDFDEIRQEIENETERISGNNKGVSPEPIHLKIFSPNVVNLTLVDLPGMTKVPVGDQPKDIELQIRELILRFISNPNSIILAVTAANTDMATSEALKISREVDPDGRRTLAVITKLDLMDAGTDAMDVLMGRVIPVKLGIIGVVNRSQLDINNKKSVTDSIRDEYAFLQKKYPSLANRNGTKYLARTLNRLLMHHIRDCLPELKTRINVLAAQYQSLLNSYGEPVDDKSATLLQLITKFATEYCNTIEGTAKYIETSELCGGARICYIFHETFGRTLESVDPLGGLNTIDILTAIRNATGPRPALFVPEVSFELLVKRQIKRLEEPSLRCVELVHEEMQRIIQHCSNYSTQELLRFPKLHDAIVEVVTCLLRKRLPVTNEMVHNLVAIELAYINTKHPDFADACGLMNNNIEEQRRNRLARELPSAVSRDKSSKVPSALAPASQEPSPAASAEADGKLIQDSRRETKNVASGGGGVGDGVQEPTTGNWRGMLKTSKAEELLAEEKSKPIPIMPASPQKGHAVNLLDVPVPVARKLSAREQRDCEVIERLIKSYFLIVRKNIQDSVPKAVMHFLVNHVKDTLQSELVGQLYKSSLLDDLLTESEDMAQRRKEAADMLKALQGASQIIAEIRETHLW
UniProt Q96EY1: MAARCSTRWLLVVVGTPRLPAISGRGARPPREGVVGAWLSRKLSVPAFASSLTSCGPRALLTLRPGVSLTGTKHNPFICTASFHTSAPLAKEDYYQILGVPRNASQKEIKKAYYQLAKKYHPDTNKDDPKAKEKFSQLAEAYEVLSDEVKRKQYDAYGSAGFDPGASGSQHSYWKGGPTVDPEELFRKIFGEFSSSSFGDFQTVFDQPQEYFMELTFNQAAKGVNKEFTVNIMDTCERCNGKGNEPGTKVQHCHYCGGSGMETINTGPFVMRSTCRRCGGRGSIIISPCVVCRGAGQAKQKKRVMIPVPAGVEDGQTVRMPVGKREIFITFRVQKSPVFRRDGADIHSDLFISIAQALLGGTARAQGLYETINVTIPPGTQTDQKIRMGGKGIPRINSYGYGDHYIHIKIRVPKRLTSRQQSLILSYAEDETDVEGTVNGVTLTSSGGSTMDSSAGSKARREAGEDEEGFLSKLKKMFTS
UniProt Q02487, whole entry, looked up: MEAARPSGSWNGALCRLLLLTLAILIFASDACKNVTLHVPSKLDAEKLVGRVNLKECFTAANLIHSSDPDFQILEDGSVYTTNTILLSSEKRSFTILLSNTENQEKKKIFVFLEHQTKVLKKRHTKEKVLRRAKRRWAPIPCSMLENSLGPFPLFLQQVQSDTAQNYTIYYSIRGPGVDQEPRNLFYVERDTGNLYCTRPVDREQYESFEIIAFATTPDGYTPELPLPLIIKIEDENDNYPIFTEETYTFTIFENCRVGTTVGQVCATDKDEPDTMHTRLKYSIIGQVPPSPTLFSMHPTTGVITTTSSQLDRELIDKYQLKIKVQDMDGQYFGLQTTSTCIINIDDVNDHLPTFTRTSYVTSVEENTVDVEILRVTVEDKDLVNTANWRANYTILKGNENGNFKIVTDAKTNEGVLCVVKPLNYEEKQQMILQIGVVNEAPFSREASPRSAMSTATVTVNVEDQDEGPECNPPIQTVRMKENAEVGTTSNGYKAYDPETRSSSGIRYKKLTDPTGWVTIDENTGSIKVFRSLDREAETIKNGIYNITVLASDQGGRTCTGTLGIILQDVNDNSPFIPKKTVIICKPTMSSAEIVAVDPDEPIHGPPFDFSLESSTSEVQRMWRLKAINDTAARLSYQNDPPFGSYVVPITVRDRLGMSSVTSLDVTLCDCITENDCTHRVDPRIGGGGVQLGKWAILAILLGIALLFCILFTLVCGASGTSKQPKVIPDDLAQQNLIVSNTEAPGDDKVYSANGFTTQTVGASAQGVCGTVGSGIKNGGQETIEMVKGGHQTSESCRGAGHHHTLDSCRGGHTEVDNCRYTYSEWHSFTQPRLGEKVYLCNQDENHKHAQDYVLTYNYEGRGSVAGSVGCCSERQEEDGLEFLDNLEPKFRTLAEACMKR
UniProt Q9UKB3: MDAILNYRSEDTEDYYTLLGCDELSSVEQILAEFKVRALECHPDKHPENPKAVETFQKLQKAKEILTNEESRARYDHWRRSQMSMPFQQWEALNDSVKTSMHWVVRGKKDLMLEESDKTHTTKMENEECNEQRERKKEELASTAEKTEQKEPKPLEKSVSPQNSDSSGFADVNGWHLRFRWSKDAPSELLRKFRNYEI
UniProt Q8TBM8: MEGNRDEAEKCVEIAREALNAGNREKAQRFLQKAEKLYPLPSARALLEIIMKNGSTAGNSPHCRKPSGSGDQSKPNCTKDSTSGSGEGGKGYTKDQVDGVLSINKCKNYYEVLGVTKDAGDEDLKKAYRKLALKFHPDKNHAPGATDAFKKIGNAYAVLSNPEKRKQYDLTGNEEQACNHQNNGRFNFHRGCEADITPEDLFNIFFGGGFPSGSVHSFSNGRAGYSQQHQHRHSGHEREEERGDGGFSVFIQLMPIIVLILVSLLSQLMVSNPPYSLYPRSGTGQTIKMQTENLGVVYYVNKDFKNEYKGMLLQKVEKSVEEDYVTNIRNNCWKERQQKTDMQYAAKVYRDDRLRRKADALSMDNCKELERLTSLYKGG
UniProt Q14919: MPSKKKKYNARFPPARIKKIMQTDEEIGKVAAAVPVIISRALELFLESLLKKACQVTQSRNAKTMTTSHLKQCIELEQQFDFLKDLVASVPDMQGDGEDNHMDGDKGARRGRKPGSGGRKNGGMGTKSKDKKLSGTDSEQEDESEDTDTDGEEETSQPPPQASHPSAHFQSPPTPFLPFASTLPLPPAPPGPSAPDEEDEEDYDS
UniProt Q96DA6: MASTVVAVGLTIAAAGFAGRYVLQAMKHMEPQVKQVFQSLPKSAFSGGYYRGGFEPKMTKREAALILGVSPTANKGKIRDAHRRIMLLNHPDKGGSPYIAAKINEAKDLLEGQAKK
UniProt Q5SXM8: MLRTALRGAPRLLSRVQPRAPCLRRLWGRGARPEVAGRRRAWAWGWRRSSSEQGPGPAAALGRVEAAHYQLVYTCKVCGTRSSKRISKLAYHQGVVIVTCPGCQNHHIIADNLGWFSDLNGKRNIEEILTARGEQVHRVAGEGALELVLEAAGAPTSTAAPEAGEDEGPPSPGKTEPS
UniProt Q6P2E9: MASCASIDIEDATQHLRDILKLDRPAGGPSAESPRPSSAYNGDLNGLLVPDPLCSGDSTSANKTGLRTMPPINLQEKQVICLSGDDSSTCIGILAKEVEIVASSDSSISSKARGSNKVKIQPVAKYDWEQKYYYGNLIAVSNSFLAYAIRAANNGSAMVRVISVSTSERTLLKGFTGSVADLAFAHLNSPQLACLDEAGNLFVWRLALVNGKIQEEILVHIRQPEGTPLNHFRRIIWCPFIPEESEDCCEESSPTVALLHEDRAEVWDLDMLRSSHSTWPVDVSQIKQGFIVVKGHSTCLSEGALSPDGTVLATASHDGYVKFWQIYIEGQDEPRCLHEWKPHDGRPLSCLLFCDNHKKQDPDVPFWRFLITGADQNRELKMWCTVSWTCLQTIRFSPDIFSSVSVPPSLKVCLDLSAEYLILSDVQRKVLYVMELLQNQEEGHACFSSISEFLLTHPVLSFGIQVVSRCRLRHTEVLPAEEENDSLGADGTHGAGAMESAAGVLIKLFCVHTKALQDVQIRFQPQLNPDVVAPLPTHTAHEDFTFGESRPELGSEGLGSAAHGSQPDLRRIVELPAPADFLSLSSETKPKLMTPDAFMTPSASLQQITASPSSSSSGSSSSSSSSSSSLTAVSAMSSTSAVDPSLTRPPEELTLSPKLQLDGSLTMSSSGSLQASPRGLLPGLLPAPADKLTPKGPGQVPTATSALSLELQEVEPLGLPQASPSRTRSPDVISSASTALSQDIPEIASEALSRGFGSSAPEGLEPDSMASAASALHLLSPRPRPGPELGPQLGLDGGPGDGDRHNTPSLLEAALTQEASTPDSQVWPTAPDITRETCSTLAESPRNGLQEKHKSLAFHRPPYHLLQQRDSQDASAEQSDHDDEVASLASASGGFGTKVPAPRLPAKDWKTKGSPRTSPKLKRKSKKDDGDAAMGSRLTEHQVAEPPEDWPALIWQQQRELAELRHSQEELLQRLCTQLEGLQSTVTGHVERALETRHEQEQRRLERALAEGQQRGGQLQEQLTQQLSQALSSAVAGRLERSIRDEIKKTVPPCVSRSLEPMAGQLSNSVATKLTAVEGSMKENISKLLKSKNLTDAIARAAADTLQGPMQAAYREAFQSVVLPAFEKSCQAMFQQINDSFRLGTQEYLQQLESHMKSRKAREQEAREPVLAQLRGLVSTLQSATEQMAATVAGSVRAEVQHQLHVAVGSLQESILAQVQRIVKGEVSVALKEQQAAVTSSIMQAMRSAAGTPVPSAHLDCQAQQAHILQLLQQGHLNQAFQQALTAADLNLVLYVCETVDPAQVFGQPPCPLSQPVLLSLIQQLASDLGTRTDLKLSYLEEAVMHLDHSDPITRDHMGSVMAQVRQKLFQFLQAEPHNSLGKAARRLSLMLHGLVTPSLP
UniProt O43598: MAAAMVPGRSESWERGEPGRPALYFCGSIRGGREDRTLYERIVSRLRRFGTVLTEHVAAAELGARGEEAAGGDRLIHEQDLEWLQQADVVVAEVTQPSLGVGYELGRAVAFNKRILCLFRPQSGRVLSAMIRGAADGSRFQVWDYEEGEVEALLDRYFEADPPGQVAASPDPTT
UniProt Q9Y6G9, whole entry, looked up: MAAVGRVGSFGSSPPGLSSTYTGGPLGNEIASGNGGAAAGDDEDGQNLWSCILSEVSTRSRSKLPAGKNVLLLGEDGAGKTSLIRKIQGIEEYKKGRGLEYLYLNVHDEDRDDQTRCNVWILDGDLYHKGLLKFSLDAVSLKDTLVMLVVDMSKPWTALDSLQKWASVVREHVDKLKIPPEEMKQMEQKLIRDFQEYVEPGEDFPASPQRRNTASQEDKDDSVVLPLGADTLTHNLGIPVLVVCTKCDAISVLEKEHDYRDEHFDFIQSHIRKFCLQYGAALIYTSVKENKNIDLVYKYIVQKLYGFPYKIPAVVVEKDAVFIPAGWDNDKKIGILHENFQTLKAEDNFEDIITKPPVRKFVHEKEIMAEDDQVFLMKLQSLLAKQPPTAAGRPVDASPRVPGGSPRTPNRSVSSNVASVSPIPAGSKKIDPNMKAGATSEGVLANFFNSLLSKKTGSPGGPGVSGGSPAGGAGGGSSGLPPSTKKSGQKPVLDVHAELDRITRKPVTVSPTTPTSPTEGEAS
UniProt Q7L591: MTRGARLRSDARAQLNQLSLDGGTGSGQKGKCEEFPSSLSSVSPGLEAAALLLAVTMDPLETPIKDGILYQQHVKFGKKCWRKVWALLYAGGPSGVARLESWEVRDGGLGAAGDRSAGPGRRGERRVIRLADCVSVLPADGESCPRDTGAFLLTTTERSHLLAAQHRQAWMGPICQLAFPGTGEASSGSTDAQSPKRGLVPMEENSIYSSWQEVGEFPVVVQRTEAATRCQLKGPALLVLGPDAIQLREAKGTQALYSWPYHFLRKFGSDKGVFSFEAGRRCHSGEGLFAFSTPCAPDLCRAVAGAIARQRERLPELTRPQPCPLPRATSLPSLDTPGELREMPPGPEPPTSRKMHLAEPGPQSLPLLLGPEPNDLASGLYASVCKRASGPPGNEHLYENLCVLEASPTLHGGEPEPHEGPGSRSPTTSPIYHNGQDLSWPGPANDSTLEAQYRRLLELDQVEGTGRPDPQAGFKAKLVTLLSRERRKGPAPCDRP
UniProt Q7Z388: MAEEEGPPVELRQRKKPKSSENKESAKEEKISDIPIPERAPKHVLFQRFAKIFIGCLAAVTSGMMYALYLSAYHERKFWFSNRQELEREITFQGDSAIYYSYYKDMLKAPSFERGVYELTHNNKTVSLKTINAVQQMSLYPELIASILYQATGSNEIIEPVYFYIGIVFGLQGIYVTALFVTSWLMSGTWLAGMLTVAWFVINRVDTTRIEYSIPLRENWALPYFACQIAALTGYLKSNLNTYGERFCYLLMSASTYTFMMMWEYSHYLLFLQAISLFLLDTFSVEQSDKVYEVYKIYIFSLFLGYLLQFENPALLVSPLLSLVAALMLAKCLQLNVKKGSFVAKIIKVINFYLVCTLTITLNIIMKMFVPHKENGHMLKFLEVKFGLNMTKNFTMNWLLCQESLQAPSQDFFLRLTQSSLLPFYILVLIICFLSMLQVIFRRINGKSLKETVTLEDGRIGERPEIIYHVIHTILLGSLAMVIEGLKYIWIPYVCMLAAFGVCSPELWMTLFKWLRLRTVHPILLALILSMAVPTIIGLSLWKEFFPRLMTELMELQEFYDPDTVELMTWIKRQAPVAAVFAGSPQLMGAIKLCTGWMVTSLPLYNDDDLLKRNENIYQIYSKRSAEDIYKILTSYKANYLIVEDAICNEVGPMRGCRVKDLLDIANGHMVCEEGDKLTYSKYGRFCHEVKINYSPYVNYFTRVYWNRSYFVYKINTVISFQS

The list shows a part of the results.

Compound in one experiment: C1=CC=C(C=C1)[C@H](COC2=CC3=C(C=C2)NC(=O)N3)NC(=O)C4=CC=CN(C4=O)CC5=CC(=C(C=C5)F)F
The experiment can be described thus: log2 fold change, soluble protein after heating vs DMSO (PISA); higher = thermal stabilisation; K562 cells, 10 uM, 30 min; active = over 0.2 and 3.5 SD of the protein, either way, in both replicates (recomputed). An outline of the steps:
(§1)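 Values are thermal stability changes relative to control samples and are taken from duplicates. They are stated as log2 fold changes. Before quantification by TMTpro 16plex LC-MS/MS with equalised channel sums, K562 cells at 2×10^6 cells/mL were treated with 10 μM compound for 30 min, heated in aliquots for 3 min across 48°C-58°C, pooled, extracted in PBS with 0.5% NP-40 at 4°C, and centrifuged at 21,000xg for 90 min to give the soluble supernatant.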
Take DTYMK (UniProt P23919): the log2 fold change was inactive: -0.064.

Turning to EDF1 (UniProt O60869), the log2 fold change was inactive: 0.003.

In the case of DNAJC24 (UniProt Q6P3W2), the log2 fold change is inactive: 0.05.

Consider DPF2 (UniProt Q92785), for which the log2 fold change is inactive: 0.051.

For DPH6 (UniProt Q7L8W6), the log2 fold change was inactive: -0.001.

Take DNM1L isoform 2 (UniProt O00429): the log2 fold change is inactive: -0.138.

As to DNAJA3 (UniProt Q96EY1), the log2 fold change is inactive: -0.011.

Regarding DSC2 (UniProt Q02487), the log2 fold change was inactive: 0.078.

Take DNAJB12 (UniProt Q9NXW2): the log2 fold change was inactive: -0.044.

As to DOCK11 (UniProt Q5JSL3), the log2 fold change was inactive: -0.045.

DTWD2 (UniProt Q8NBA8): the log2 fold change is inactive: -0.011.

As to E2F3 (UniProt O00716), the log2 fold change is inactive: -0.041.

Consider DYNLT1 (UniProt P63172), for which the log2 fold change is inactive: -0.022.

For the target DNAJC6 isoform 2 (UniProt O75061), the log2 fold change was inactive: 0.

Take DRG2 (UniProt P55039): the log2 fold change is inactive: 0.002.

With DOCK9 isoform 4 (UniProt Q9BZ29), the log2 fold change is inactive: -0.05.

Take DTD1 (UniProt Q8TEA8): the log2 fold change is inactive: 0.036.

Regarding DNAJC12 (UniProt Q9UKB3), the log2 fold change was inactive: 0.028.

For the target DNAJB14 (UniProt Q8TBM8), the log2 fold change is inactive: 0.02.

For DNAJC17 (UniProt Q9NVM6), the log2 fold change was inactive: 0.001.

Consider DNAJB11 (UniProt Q9UBS4), for which the log2 fold change is inactive: 0.009.

For the target DRAP1 isoform 2 (UniProt Q14919), the log2 fold change is inactive: 0.016.

For DNAJC19 (UniProt Q96DA6), the log2 fold change was inactive: 0.025.

Turning to DNLZ (UniProt Q5SXM8), the log2 fold change is inactive: 0.053.

In the case of EDC4 (UniProt Q6P2E9), the log2 fold change is inactive: 0.02.

As for EEA1 (UniProt Q15075), the log2 fold change was inactive: 0.022.

In the case of DNPH1 (UniProt O43598), the log2 fold change was inactive: 0.013.

As for DPH2 (UniProt Q9BQC3), the log2 fold change was inactive: -0.006.

As to EBAG9 isoform 2 (UniProt O00559), the log2 fold change is inactive: 0.075.

For the target DYNC1LI1 (UniProt Q9Y6G9), the log2 fold change is inactive: -0.023.

Consider DTWD1 (UniProt Q8N5C7), for which the log2 fold change is inactive: -0.051.

With DPY19L1, A0A1B0GW05, the log2 fold change is inactive: -0.014.

Consider E4F1 (UniProt Q66K89), for which the log2 fold change was inactive: 0.11.

As for DOK3 (UniProt Q7L591), the log2 fold change was inactive: -0.049.

Turning to DYM (UniProt Q7RTS9), the log2 fold change is inactive: 0.052.

As for DPY19L4 (UniProt Q7Z388), the log2 fold change is inactive: -0.025.

On to DSTN (UniProt P60981), for which the log2 fold change is inactive: -0.063.

Take DPYSL2 (UniProt Q16555): the log2 fold change was inactive: -0.012.

Regarding EDC3 (UniProt Q96F86), the log2 fold change is inactive: -0.198.

Compound in the next experiment: CC1=C(SC2=C1C(=N[C@H](C3=NN=C(N32)C)CC(=O)N)C4=CC=C(C=C4)Cl)C
The experiment is described as above. An outline of the steps: as §1
For the target DTYMK (UniProt P23919), the log2 fold change is inactive: 0.082.

Take EDF1 (UniProt O60869): the log2 fold change is inactive: 0.008.

For the target DNAJC24 (UniProt Q6P3W2), the log2 fold change was inactive: 0.072.

With DPF2 (UniProt Q92785), the log2 fold change is inactive: -0.037.

For the target DPH6 (UniProt Q7L8W6), the log2 fold change was inactive: -0.017.

On to DNM1L isoform 2 (UniProt O00429), for which the log2 fold change is inactive: -0.106.

Take DNAJA3 (UniProt Q96EY1): the log2 fold change is inactive: -0.018.

With DSC2 (UniProt Q02487), the log2 fold change was inactive: -0.032.

With DNAJB12 (UniProt Q9NXW2), the log2 fold change was inactive: 0.027.

Turning to DOCK11 (UniProt Q5JSL3), the log2 fold change was inactive: 0.045.

DTWD2 (UniProt Q8NBA8): the log2 fold change is inactive: 0.125.

E2F3 (UniProt O00716): the log2 fold change was inactive: 0.031.

As to DYNLT1 (UniProt P63172), the log2 fold change was inactive: 0.139.

For the target DNAJC6 isoform 2 (UniProt O75061), the log2 fold change is inactive: 0.038.

Turning to DRG2 (UniProt P55039), the log2 fold change was inactive: 0.073.

In the case of DOCK9 isoform 4 (UniProt Q9BZ29), the log2 fold change is inactive: 0.02.

Take DTD1 (UniProt Q8TEA8): the log2 fold change was inactive: -0.032.

For DNAJC12 (UniProt Q9UKB3), the log2 fold change is inactive: 0.028.

Regarding DNAJB14 (UniProt Q8TBM8), the log2 fold change was inactive: 0.104.

Take DNAJC17 (UniProt Q9NVM6): the log2 fold change is inactive: 0.104.

With DNAJB11 (UniProt Q9UBS4), the log2 fold change was inactive: 0.

For DRAP1 isoform 2 (UniProt Q14919), the log2 fold change is inactive: 0.024.

With DNAJC19 (UniProt Q96DA6), the log2 fold change is inactive: 0.021.

With DNLZ (UniProt Q5SXM8), the log2 fold change is inactive: 0.05.

For EDC4 (UniProt Q6P2E9), the log2 fold change is inactive: -0.004.

EEA1 (UniProt Q15075): the log2 fold change is inactive: -0.015.

On to DNPH1 (UniProt O43598), for which the log2 fold change was inactive: 0.024.

Take DPH2 (UniProt Q9BQC3): the log2 fold change is inactive: 0.024.

For EBAG9 isoform 2 (UniProt O00559), the log2 fold change is inactive: 0.077.

On to DYNC1LI1 (UniProt Q9Y6G9), for which the log2 fold change was inactive: 0.019.

DTWD1 (UniProt Q8N5C7): the log2 fold change is inactive: -0.011.

In the case of DPY19L1, A0A1B0GW05, the log2 fold change was inactive: -0.043.

For the target E4F1 (UniProt Q66K89), the log2 fold change was inactive: 0.331.

Regarding DOK3 (UniProt Q7L591), the log2 fold change was inactive: 0.116.

As to DYM (UniProt Q7RTS9), the log2 fold change was inactive: 0.

Take DPY19L4 (UniProt Q7Z388): the log2 fold change is inactive: -0.259.

On to DSTN (UniProt P60981), for which the log2 fold change was inactive: 0.015.

As for DPYSL2 (UniProt Q16555), the log2 fold change is inactive: 0.072.

As to EDC3 (UniProt Q96F86), the log2 fold change is inactive: 0.12.
